# From PMC11122021
# By UniProt entry, the sequences of proteins in these tests, tags left out. Where a name states a change or a piece, a line headed by the entry shows the natural chain unless it says otherwise.
# UniProt O82307: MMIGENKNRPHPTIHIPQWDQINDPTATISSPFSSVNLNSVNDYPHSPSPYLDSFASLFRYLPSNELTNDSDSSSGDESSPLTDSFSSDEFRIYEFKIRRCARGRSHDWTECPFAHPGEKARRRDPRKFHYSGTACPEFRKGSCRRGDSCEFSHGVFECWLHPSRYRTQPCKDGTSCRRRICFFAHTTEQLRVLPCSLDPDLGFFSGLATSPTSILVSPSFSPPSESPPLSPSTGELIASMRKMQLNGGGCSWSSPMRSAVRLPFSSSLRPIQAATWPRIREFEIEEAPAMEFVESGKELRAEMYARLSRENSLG
# Biological target: GST-TZF1 (Arabidopsis thaliana) (UniProt O82307)
# Assay: EMSA
# Conditions: most complex did not enter the gel; 20 mM HEPES-KOH pH 7.5, 50 mM NaCl, 5 uM ZnCl2, 4 mM MgCl2 (binding buffer, mixed 1:1 with 20 mM Tris-HCl pH 8, 50 mM NaCl, 1 mM DTT in direct EMSA); recombinant protein; protein details: GST; label: 5'-32P (direct EMSA), unlabeled as competitor; probe letters rebuilt from the primers and the genome; part of a longer molecule
sequence,measurement,value
CCUUCUGGUCCAUCUGACUCUGCCUAACCCACCAUCUAGUAACGCAACGUCCAUUUUAUAUUUGAUUUUUUUUCCUUCCUUCUUCAACUCCGGGCUAAUGAUCUGAUCUCAAAUUGUAUAAAAUCGUUGCUGGAUUUUUUCUAUUUUGGGUGUGGGUUUGAUAUAUUUUGUCAACUGAGUUUCCACUU [ACA11 F4],binding result,binds

# The exact form of at least one protein or probe is not confirmed.
